Holding throughout (assay): fluorescence microscopy-based interaction-trap
Assay [1] has as its target T1, TetR:EYFP:CENP-B^133–599 (human) (UniProt P07199).
T1 sequence: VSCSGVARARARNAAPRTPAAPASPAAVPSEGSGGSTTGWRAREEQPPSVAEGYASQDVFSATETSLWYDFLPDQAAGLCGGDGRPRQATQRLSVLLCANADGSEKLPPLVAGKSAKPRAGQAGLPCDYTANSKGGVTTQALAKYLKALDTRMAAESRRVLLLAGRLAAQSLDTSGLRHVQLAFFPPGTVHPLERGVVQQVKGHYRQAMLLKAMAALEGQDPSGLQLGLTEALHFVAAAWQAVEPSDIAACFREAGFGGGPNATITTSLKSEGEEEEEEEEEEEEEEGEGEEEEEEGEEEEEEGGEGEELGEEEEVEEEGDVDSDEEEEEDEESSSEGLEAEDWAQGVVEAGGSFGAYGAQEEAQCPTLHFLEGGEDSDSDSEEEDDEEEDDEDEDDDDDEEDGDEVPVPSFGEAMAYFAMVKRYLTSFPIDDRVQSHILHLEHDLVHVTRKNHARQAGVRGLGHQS

The target of assay [2] is TetR-EYFP-ZNF518B^1–398 (human) (UniProt Q9C0D4).
Assay [3] has as its target TetR-EYFP-ZNF518B^1–628 (human) (UniProt Q9C0D4).
Assay [4] addresses TetR-EYFP-ZNF518B^344–1074 (human) (UniProt Q9C0D4).
Assay [5] concerns the target TetR-EYFP-ZNF518B^344–628 (human) (UniProt Q9C0D4).
Assay [6] concerns the target TetR-EYFP-ZNF518B^344–877 (human) (UniProt Q9C0D4).
In assay [7] the target is TetR-EYFP-ZNF518B^344–987 (human) (UniProt Q9C0D4).
For assay [8], the target named is TetR-EYFP-ZNF518B^555–1074 (human) (UniProt Q9C0D4).
Assay [9] addresses TetR-EYFP-ZNF518B^555–877 (human) (UniProt Q9C0D4).
Assay [10] deals with TetR-EYFP-ZNF518B^770–877 (human) (UniProt Q9C0D4).
In assay [11] the target is TetR-EYFP-ZNF518B^770–987 (human) (UniProt Q9C0D4).
Assay [12] deals with TetR-EYFP-ZNF518B^878–1074 (human) (UniProt Q9C0D4).
Assay [13] has as its target TetR-EYFP-ZNF518B^878–987 (human) (UniProt Q9C0D4).

Results are given in words; binding and its absence hold for the method and conditions named. Some results given as binding are weak or reduced against the parent protein; the word gives no strength. For some of these results: Tags and fused reporters may be left off the sequences shown.

B1: ZNF518B^WT recruited by TetR:EYFP:CENP-B^133–599 (Fig. S6B) (protein, UniProt Q9C0D4 1-1074)
chain: MKDIGQQLYTTHLNGGHNSLTMSPKQPDANGAPRPNRQEAQTLLYQGSEAEAAMMTIATCAKCKSVHKISLQDLQKGTGKDGMYVCFQCSLGAAPPNFHFVSNNSSATHVGNKTENFSSSVNSKFKVRNFKPGKYYCDKCRFSTKDPLQYKKHTLQHEEIKFICSHCSYISYTKGEFQRHLVKHTGIFPYQCEYCDYGAIRNDYIVKHTKRVHERAGAKRPVKAVAKLEPKRTGTSKQNPELLKASNPRTTFQNKWSDQLSGFSLHANKDKMHNIMLLPEPKEYQKDVVCIPNKMTLSEPNEVNLFENKNVEVEVLSPAKEPVQPGMPLTVVAPAELVVPANCLAQLIDVKVVNGTQQLVLKLFPLEENNCLEAGRDNGGNSERMVKEKGSNEQEKVLSAEKTKSLTVDGNVGKLVGIDSFQPSVQKQLKNVKWVRSYDFIMPNSSVHNNGKSFINSETIEDFQKKNNLYPHRTAFPSVALKGHSLASVFKNSVLRSLGAASNPFPYKAAVCFAESGRNLHSSSQQLLPFAASPATCSFSGEKGLLPVSENDLESTSKVNIPVKVVSSNRKQEDNQTEEHKAVSTVGQISSQHKSEYLHINITGEDRSQQPGDKPLELKNSERTNNTNDGPVISSVFSLSSGSENVPEGIKWNSSTSKIKSIELLRRKIAQLIESCGKPSSLASNSAHRRSVGQASKGTSKATSEGIQEINVSLTGLGHSTGTLQKPPNDGGITGNRQLTHQQIYPHFADGSNRKTKSRVARKAHVATPVLIPKGAVLRVLNSSENAHIIEATCEAPVSIPCSERQLIKPVPFCPVRQADSDLQPLRSERGPIDMSPNIETPLRPKLRKESAVCSTIHRKTGLLYGQQGSSELNKQGRLLSRSLSISRNKTKQVHLSRKKNKIQAEPSRCLKDPSIFQVARQLRLIAAKPDQLIKCPRRNQPVIVLNHPDVDSPEVTNVMKVINKYKGNVLKVVLSERTRCQLGIRRHHVRLTYQNAEEASQIKRQMMLKMKLKKVHKNNYQVVDSLPDDSSQCVFKCWFCGRLYEDQEEWMSHGQRHLIEATRDWDVLSSKGK
For the molecule B1, the binding result in [1] was “binds”.

B2: Halo-CENP-B^133–599 (domain or fragment, UniProt P07199 133-599)
chain: T1 sequence
modifications: Halo Tag TMR ligand on the Halo tag
For the molecule B2, the binding entry was “binds weakly” in assay [2]; “binds weakly” in assay [3]; “binds” in assay [4]; “binds weakly” in assay [5]; “binds” in assay [6]; “binds” in assay [7]. Besides, the binding entry is reported as “binds” in [8]; “binds” in assay [9]; “binds” in assay [10]; “binds” in assay [11]; “no binding” in assay [12]; “no binding” in [13].

The record behind these values is publication doi:10.1101/2022.09.15.508097.
